Record: PubChem BioAssay AID652272 (Drosophila RNAi Screening Center, 2013)

Purpose: 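Genome-wide knock-down search for components of Hedgehog signalling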 (primary screen)
System: Drosophila clone 8 (Cl8) cells
Reagent: long dsRNA against Drosophila genes
Read-out: 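Firefly light from a Hedgehog-responsive ptc promoter reporter and Renilla reference light, both read on a plate reader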
Scale: firefly Hh reporter signal: higher = more ptc reporter light; Renilla reference signal: higher = more Renilla control light
Rule for the call: 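Hit when the z-score averaged over two replicates is under -2 or over +3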
Calls: active = hit: reporter lowered or raised; inactive = not a hit
The screen tested about 21,000 reagents; shown is an unselected part of those that have a named target and a result. In the full data, 503 (2.4%) got an active call. 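Raw plate light values, not normalised; calls rest on replicate z-scores that were not deposited; hits include reporter decreases as well as increases.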 Reagents against one gene are numbered here. A plus sign joins genes that one reagent is predicted to hit. The record does not give: the amount of reagent, the time to read-out.

Target gene | reagent | firefly Hh reporter signal, replicate 1 | firefly Hh reporter signal, replicate 2 | firefly Hh reporter signal, replicate 3 | Renilla reference signal, replicate 1 | Renilla reference signal, replicate 2 | activity call
lobo | 1 | 5.72e5 | 77818 | – | 28347 | 5920 | inactive
lobo | 2 | 5.03e5 | 78653 | – | 26496 | 5963 | inactive
CG14142 | 1 | 48208 | 44161 | 68998 | 4368 | 5575 | inactive
Myo10A | 1 | 29484 | 1.02e5 | – | 1274 | 4674 | inactive
Myo10A | 2 | 69920 | 2.00e5 | – | 1344 | 8233 | inactive
Myo10A | 3 | 72144 | 1.83e5 | – | 1485 | 6198 | inactive
tst | 1 | 83778 | 60482 | – | 3186 | 2074 | inactive
CG8500 | 1 | 61591 | 84182 | – | 2498 | 3312 | inactive
Pis | 1 | 78921 | 2.04e5 | – | 1664 | 9384 | inactive
CG14036 | 1 | 1.22e5 | 52996 | – | 2632 | 5269 | inactive
RPA2 | 1 | 76231 | 61904 | – | 3109 | 2580 | inactive
ninaB | 1 | 66327 | 79411 | – | 1492 | 1930 | inactive
CG12507 | 1 | 69589 | 1.96e5 | – | 2582 | 7719 | inactive
CG31268 | 1 | 50947 | 1.67e5 | – | 8589 | 2743 | inactive
Asph | 1 | 1.03e5 | 76772 | – | 2744 | 5161 | inactive
Asph | 2 | 1.25e5 | 68721 | – | 5225 | 3139 | inactive
Blos2 | 1 | 75794 | 67744 | 56659 | 4748 | 4332 | inactive
CG32206 | 1 | 6.69e5 | 2.84e5 | 1.24e5 | 5416 | 6604 | inactive
CG32206 | 2 | 79712 | 88864 | – | 2914 | 2224 | inactive
CG32206 | 3 | 92698 | 63195 | – | 2955 | 1693 | inactive
CG32206 | 4 | 1.54e5 | 1.24e5 | – | 4598 | 3131 | inactive
CG32206 | 5 | 74080 | 74425 | – | 3122 | 2362 | inactive
CG43341 | 1 | 1.29e5 | 3.13e5 | – | 3464 | 11736 | inactive
Chd1 | 1 | 77830 | 72833 | – | 3317 | 3399 | inactive
CG14234 | 1 | 5.36e5 | 2.14e5 | – | 31762 | 5341 | inactive
CG14234 | 2 | 57269 | 2.41e5 | – | 1014 | 9752 | inactive
CG33768 | 1 | 79446 | 86189 | – | 3307 | 1778 | inactive
CG7276 | 1 | 1.15e5 | – | – | 4008 | 2944 | inactive
CG43077 | 1 | 7.19e5 | 1.92e5 | – | 42368 | 3783 | inactive
Snx17 | 1 | 84707 | 71905 | – | 5010 | 3440 | inactive
CG15717 | 1 | 95232 | 3.01e5 | – | 1597 | 11280 | inactive
fliI | 1 | 5.14e5 | 95522 | – | 3424 | 3424 | inactive
CG15753 (retired record) | 1 | 7.91e5 | 1.25e5 | – | 4189 | 4189 | inactive
CG15753 (retired record) | 2 | 1.12e5 | 98331 | – | 2344 | 2128 | inactive
CG15753 (retired record) | 3 | 82272 | 2.78e5 | – | 2496 | 11297 | inactive
CG15753 (retired record) | 4 | 69488 | 2.06e5 | – | 1613 | 6404 | inactive
CG15753 (retired record) | 5 | 40469 | 26056 | – | 2613 | 1057 | active
Arp8 | 1 | 1.46e5 | 1.17e5 | – | 2772 | 2704 | inactive
BORCS6 | 1 | 82258 | 46433 | – | 2025 | 3637 | inactive
mTTF | 1 | 84598 | 46499 | – | 2164 | 4021 | inactive
CG13634 | 1 | 5.00e5 | 83708 | – | 24002 | 2486 | inactive
SmD1 | 1 | 43533 | 32432 | 68952 | 3680 | 4900 | inactive
sotv + CG10731 | 1 | 1.02e5 | 41125 | – | 2369 | 2608 | inactive
sotv + CG10731 | 2 | 61273 | 48636 | – | 1591 | 3552 | inactive
eIF4A | 1 | 68052 | 25347 | – | 1565 | 2051 | inactive
Ir47a | 1 | 90539 | 48710 | – | 2045 | 4464 | inactive
emei | 1 | 18084 | 86013 | 5.34e5 | 9554 | 2758 | inactive
Dg | 1 | 82960 | 78699 | – | 2192 | 4896 | inactive
Faf2 | 1 | 63206 | 47830 | – | 2832 | 1625 | inactive
CG34026 | 1 | 4.42e5 | 1.78e5 | – | 26028 | 3708 | inactive
CG31462 (retired record) | 1 | 48453 | 1.07e5 | – | 1264 | 3323 | inactive
CG14075 | 1 | 80976 | 1.28e5 | – | 2614 | 3562 | inactive
TBC1D5 | 1 | 98492 | 1.18e5 | – | 4038 | 4408 | inactive
rk | 1 | 1.32e5 | 55673 | – | 3283 | 5157 | inactive
Cyp4ae1 | 1 | 84277 | 77315 | – | 2066 | 2429 | inactive
TbCMF46 | 1 | 85536 | 41024 | – | 2219 | 3409 | inactive
Snoo | 1 | 5.58e5 | 2.42e5 | – | 28056 | 9712 | inactive
Snoo | 2 | 1.01e5 | 79622 | – | 3504 | 3269 | inactive
Snoo | 3 | 96459 | 61492 | – | 2386 | 4969 | inactive
